For this experiment, the target named is 3×FLAG-tagged RBOHD (RESPIRATORY BURST OXIDASE HOMOLOG D) (Arabidopsis thaliana) (UniProt Q9FIJ0). Description: affinity purification with mass spectrometry.

Chains of the proteins cited; added tags and fusions are not shown.
UniProt Q9FIJ0: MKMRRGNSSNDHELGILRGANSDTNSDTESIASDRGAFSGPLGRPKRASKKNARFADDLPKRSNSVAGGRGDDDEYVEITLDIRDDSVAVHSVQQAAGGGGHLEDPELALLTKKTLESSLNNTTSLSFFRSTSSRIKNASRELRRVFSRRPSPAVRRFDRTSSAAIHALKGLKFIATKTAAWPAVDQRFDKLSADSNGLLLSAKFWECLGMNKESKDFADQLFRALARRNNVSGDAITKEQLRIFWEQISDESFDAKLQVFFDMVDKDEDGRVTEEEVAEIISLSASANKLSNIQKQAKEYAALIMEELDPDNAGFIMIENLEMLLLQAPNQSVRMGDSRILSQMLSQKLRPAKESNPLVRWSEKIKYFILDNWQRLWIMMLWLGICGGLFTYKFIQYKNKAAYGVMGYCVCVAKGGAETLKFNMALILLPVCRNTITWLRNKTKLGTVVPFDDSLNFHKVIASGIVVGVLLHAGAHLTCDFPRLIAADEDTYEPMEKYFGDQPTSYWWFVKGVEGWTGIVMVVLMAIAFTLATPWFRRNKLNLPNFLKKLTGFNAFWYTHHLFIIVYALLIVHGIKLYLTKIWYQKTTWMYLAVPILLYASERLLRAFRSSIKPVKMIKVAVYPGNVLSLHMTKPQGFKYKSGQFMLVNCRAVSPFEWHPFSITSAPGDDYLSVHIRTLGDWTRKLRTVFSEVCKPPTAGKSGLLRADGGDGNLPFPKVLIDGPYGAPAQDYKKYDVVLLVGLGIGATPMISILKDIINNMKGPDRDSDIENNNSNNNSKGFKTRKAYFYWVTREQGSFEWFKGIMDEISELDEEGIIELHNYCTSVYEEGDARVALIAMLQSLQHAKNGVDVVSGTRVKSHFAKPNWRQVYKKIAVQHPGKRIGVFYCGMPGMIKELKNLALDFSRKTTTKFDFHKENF

These are yes or no findings as the source states them, for the method shown. In cells and extracts the contact can be indirect. Here binding means that the protein was enriched with, or labelled near, the bait; the list need not be complete.

“2-oxoglutarate dehydrogenase E1 component (AT3G55410) (from UniProt F4IWV2) (enzyme)”: the binding entry was “binds”.

Source of the values: publication doi:10.1101/2020.12.28.423414.
